Assay results taken from article PMC3531340.
These are yes or no findings as the source states them, for the method shown. Some entries that bind do so weakly or less than the wild type. Where a sequence is shown, tags or fusion partners need not be part of it.

Target: T1, Bombyx ultraspiracle USP1, CytoTrap two-hybrid fusion (Bombyx mori (silkworm)) (UniProt P49700)
T1 sequence: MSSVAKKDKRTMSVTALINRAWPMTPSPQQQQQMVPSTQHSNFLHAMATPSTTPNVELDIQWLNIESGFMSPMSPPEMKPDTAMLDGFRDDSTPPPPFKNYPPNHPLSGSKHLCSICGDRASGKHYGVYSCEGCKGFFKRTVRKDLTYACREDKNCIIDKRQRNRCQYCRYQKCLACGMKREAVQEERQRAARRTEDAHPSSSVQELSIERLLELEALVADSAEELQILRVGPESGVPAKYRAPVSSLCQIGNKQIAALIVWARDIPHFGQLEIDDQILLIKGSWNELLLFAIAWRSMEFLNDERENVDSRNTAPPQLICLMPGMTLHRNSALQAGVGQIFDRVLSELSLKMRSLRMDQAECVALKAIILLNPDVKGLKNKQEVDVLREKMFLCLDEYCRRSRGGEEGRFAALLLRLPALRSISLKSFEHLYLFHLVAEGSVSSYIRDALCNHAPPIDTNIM
Test: two-hybrid; CytoTrap system (Stratagene) in yeast cdc25H; bait fused to human Sos, prey fused to a myristoylation signal under the GAL1 promoter; growth at restrictive temperature on galactose medium; more colonies mean a stronger association

B1: Bombyx ecdysone receptor EcR-B1, CytoTrap two-hybrid fusion (protein, UniProt P49881 1-606)
chain: MRVENVDNVSFALNGRADEWCMSVETRLDSLVREKSEVKAYVGGCPSVITDAGAYDALFDMRRRWSNNGGFPLRMLEESSSEVTSSSALGLPPAMVMSPESLASPEYRALELWSYDDGITYNTAQSLLGACNMQQQQLQPQQPHPAPPTLPTMPLPMPPTTPKSENESMSSGREELSPASSINGCSADADARRQKKGPAPRQQEELCLVCGDRASGYHYNALTCEGCKGFFRRSVTKNAVYICKFGHACEMDMYMRRKCQECRLKKCLAVGMRPECVIQEPSKNKDRQRQKKDKGILLPVSTTTVEDHMPPIMQCDPPPPEAARIHEVVPRYLSEKLMEQNRQKNIPPLSANQKSLIARLVWYQEGYEQPSDEDLKRVTQTWQSDEEDEESDLPFRQITEMTILTVQLIVEFAKGLPGFSKISQSDQITLLKASSSEVMMLRVARRYDAASDSVLFANNKAYTRDNYRQGGMAYVIEDLLHFCRCMFAMGMDNVHFALLTAIVIFSDRPGLEQPSLVEEIQRYYLNTLRIYIINQNSASSRCAVIYGRILSVLTELRTLGTQNSNMCISLKLKNRKLPPFLEEIWDVAEVATTHPTVLPPTNPVVL
binding: binds
